According to the supplement of paper PMC6078165:
Values are relative to the signal before dosing, not to a vehicle control; the signal also falls without drug.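 Fibroblast labels denote human fibroblasts, mainly primary ones from uterus (C12385, HUF), lung (H6013), bone (Hs27A), adrenal (HADF) and skin (WS1), plus mammary HMF and breast cancer-associated Hs343T. Cancer cells are basal-like or mesenchymal-like triple-negative breast cancer lines. A hit is a response shift exceeding 3x replicate standard deviation. The tissue of the other fibroblasts is not given here.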

Tested on: BT20
Experiment: relative JC-1 red fluorescence (viability) vs pre-drug, coculture with fibroblast (fraction); higher = more viable cancer cells
Protocol: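 JC-1 labelled TNBC cells cocultured 1:1 (1,500 cells each) with CellTrace Violet stained primary or stromal fibroblasts in 384-well plates in FluoroBrite medium, treated with one of 42 anticancer drugs at 0.1, 1, 10 or 100 uM. JC-1 red fluorescence (mitochondrial integrity in cancer cells only) was read by plate reader every 8 h for 72 h. Values are normalised to each well's pre-drug value. The stock of one drug was tenfold lower, so its dose labels may be too high.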

O=C1c2c(O)ccc(O)c2C(=O)c2c(NCCNCCO)ccc(NCCNCCO)c21 [Mitoxantrone]
relative JC-1 red fluorescence
Conditions	8 h	16 h	24 h	32 h	40 h	48 h	56 h	64 h	72 h
0.1 µM, coculture fibroblast: C12385	0.8022	0.753	0.6698	0.592	0.549	0.529	0.517	0.502	0.494
0.1 µM, coculture fibroblast: H6013	0.9151	0.826	0.757	0.7	0.643	0.61	0.597	0.581	0.576
0.1 µM, coculture fibroblast: H6019	0.795	0.744	0.699	0.643	0.608	0.606	0.589	0.577	0.575
0.1 µM, coculture fibroblast: H6076	0.828	0.869	0.816	0.81	0.785	0.783	0.792	0.8	0.792
0.1 µM, coculture fibroblast: H6231	0.921	0.912	0.794	0.712	0.668	0.613	0.593	0.571	0.548
0.1 µM, coculture fibroblast: HADF	0.964	0.872	0.786	0.728	0.671	0.618	0.605	0.585	0.55
0.1 µM, coculture fibroblast: HCFa	0.9	0.813	0.7373	0.677	0.618	0.563	0.537	0.515	0.471
0.1 µM, coculture fibroblast: HCPF	0.98276	0.861	0.786	0.745	0.7043	0.6874	0.646	0.631	0.599
0.1 µM, coculture fibroblast: HHSteC	0.8684	0.804	0.768	0.707	0.659	0.606	0.59	0.567	0.539
0.1 µM, coculture fibroblast: HMF	0.986	0.878	0.755	0.697	0.638	0.599	0.568	0.542	0.517
0.1 µM, coculture fibroblast: HPFa	0.87751	0.8058	0.834	0.745	0.709	0.657	0.655	0.631	0.602
0.1 µM, coculture fibroblast: HUF	0.8429	0.776	0.799	0.75	0.71	0.6771	0.675	0.664	0.655
0.1 µM, coculture fibroblast: Hs5	0.933	0.888	0.842	0.8006	0.7824	0.768	0.766	0.742	0.735
0.1 µM, coculture fibroblast: Hs27A	0.82744	0.964	0.936	0.898	0.869	0.842	0.854	0.865	0.846
0.1 µM, coculture fibroblast: Hs343T	0.971	0.822	0.7273	0.66	0.616	0.576	0.554	0.549	0.518
0.1 µM, coculture fibroblast: WS1	0.803	0.741	0.67	0.601	0.558	0.538	0.529	0.512	0.507
1 µM, coculture fibroblast: C12385	0.472	0.47	0.541	0.534	0.4883	0.482	0.471	0.461	0.449
1 µM, coculture fibroblast: H6013	0.612	0.657	0.788	0.713	0.677	0.659	0.6622	0.63	0.602
1 µM, coculture fibroblast: H6019	0.466	0.423	0.473	0.454	0.435	0.443	0.441	0.444	0.439
1 µM, coculture fibroblast: H6076	0.788	0.7945	0.877	0.885	0.885	0.854	0.821	0.796	0.757
1 µM, coculture fibroblast: H6231	0.809	0.708	0.815	0.773	0.767	0.732	0.71	0.676	0.634
1 µM, coculture fibroblast: HADF	0.646	0.688	0.801	0.743	0.74	0.697	0.693	0.669	0.622
1 µM, coculture fibroblast: HCFa	0.629	0.665	0.765	0.698	0.706	0.698	0.723	0.704	0.673
1 µM, coculture fibroblast: HCPF	0.748	0.744	0.808	0.821	0.813	0.785	0.754	0.734	0.688
1 µM, coculture fibroblast: HHSteC	0.617	0.722	0.867	0.7881	0.7688	0.7374	0.737	0.7189	0.671
1 µM, coculture fibroblast: HMF	0.774	0.771	0.788	0.748	0.722	0.681	0.648	0.614	0.576
1 µM, coculture fibroblast: HPFa	0.654	0.75	0.914	0.89	0.837	0.84	0.761	0.853	0.842
1 µM, coculture fibroblast: HUF	0.534	0.538	0.604	0.5624	0.5276	0.507	0.5	0.4923	0.4837
1 µM, coculture fibroblast: Hs5	0.786	0.805	0.853	0.831	0.811	0.778	0.754	0.725	0.691
1 µM, coculture fibroblast: Hs27A	0.738	0.744	0.922	0.868	0.8486	0.788	0.883	0.767	0.731
1 µM, coculture fibroblast: Hs343T	0.783	0.721	0.753	0.707	0.678	0.632	0.616	0.59	0.56
1 µM, coculture fibroblast: WS1	0.466	0.416	0.46	0.43219	0.3938	0.38	0.363	0.346	0.334
10 µM, coculture fibroblast: C12385	0.288	0.402	0.468	0.47	0.567	0.518	0.463	0.405	0.336
10 µM, coculture fibroblast: H6013	0.793	0.788	0.858	0.787	0.695	0.634	0.683	0.633	0.517
10 µM, coculture fibroblast: H6019	0.363	0.614	0.724	0.701	0.615	0.587	0.532	0.472	0.415
10 µM, coculture fibroblast: H6076	0.785	0.839	0.894	0.817	0.866	0.795	0.8297	0.752	0.582
10 µM, coculture fibroblast: H6231	0.933	0.843	0.915	0.866	0.9858	0.797	0.673	0.537	0.409
10 µM, coculture fibroblast: HADF	0.775	0.902	0.776	0.848	0.804	0.893	0.877	0.749	0.771
10 µM, coculture fibroblast: HCFa	0.664	0.8565	0.789	0.762	0.892	0.83	0.754	0.697	0.675
10 µM, coculture fibroblast: HCPF	0.7599	0.968	0.828	0.874	0.884	0.84	0.752	0.639	0.492
10 µM, coculture fibroblast: HHSteC	0.775	0.841	0.916	0.813	0.737	0.691	0.741	0.645	0.523
10 µM, coculture fibroblast: HMF	0.772	0.858	0.83	0.89	0.835	0.795	0.923	0.722	0.5979
10 µM, coculture fibroblast: HPFa	0.759	0.715	0.764	0.747	0.737	0.684	0.655	0.616	0.499
10 µM, coculture fibroblast: HUF	0.461	0.543	0.608	0.573	0.54	0.504	0.49	0.444	0.405
10 µM, coculture fibroblast: Hs5	0.9341	0.746	0.7014	0.766	0.779	0.746	0.869	0.786	0.637
10 µM, coculture fibroblast: Hs27A	0.882	0.703	0.878	0.912	0.867	0.754	0.878	0.816	0.862
10 µM, coculture fibroblast: Hs343T	0.691	0.893	0.752	0.793	0.89	0.978	0.809	0.695	0.547
10 µM, coculture fibroblast: WS1	0.304	0.392	0.532	0.489	0.381	0.33	0.273	0.2	0.147
